# Test results reported in article PMC12376620.
# Protein sequences, listed by entry. Tags and fused reporters are not part of them. Lines headed by an entry give the natural chain unless they say otherwise; changes in a name come on top.
# UniProt Q5K4R0: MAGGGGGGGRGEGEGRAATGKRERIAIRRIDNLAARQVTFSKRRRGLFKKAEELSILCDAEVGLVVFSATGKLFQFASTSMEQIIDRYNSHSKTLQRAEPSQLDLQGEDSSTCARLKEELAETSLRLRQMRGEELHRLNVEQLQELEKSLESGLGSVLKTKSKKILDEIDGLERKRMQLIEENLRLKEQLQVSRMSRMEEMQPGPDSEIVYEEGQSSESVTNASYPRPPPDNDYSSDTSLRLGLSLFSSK
# Target: MBP-OsMADS47 (UniProt Q5K4R0)
# Assay: EMSA
# Settings: EMSA buffer not stated (performed as described previously, ref 61); unlabeled competitors at 10x, 100x, 1000x; recombinant protein; protein details: MBP (N-terminal, pMAL); label: biotin 3'-end
row,Sequence,binding result
1,CTTCCCTACACGACCCTCTTCATGACCAGCTCATTCCGAACCCCCTTCC (double strand) [GS3-P5 mutated probe],binds more weakly
2,GCTGCACCACCCGCGATGCCGTCGGAGGTGGAGCGTCGCCGCCCTCC (double strand) [GS3-P1 mutated probe],binds more weakly
3,CTACTTTCCTTCCTCCACTAGAACCCTTCTCACTCTACATAATC (double strand) [GW8-P3 mutated probe],binds more weakly
4,CCACCGTCCCCCCTTCCCCCTCCAGAGGCAGGGAGGGAGGGAGGGGAG (double strand) [GS3-P4 mutated probe],binds more weakly
5,CTCTCCCTTCCATCATTACTTGCAATCCCCTCCCCTCCATCTCCATGTG (double strand) [GS3-P2 mutated probe],binds more weakly
6,CTTATAGTCCAACAATTTGAGAGTCAAAAATTAAATGAAAAATAGAAATTC (double strand) [GW8-P1 mutated probe],binds more weakly
7,GTAACTGACTACCCCCAGTTCCTCCTTGGTATTGTTGCTCCAAG (double strand) [GW8-P2 mutated probe],binds more weakly
8,GCCACCCTCCCTACGACGTAGCGGAGAGGTCCGCGCCGCCGCCGCTGC (double strand) [GS3-P3 mutated probe],binds more weakly

# Target: phosphorylated MBP-OsMADS47 (UniProt Q5K4R0)
# Assay: EMSA
# Settings: phosphorylated by OsMPK6, stronger than unphosphorylated; EMSA buffer not stated (performed as described previously, ref 61); unlabeled competitors at 10x, 100x, 1000x; recombinant protein; protein details: MBP (N-terminal, pMAL); label: biotin 3'-end
row,Sequence,binding result
1,CTTTTCTAAACGATATTCTTCATGAACCAAAGGAGGGAAGCTCATTCCGAAAATTTTTCC (double strand) [GS3-P5],binds
2,GCTGCACAACCCGCGATGCCGTCGGCCGGATTTGGGAGGTGGAGCGTCGCCGCCCTCC (double strand) [GS3-P1],binds
3,GCCACCCTCCCTACGACGTAGCCAGATATGGGTGGAGAGGTAAGCGCCGCCGCCGCTGC (double strand) [GS3-P3],binds
4,CTACTTTCCTTATTCCACTAGAAATCATATATACCTTTCTCACTCTACATAATC (double strand) [GW8-P3],binds
5,GTAACTGACTACCCCCAGTTCCTGCCCTCTTGGGCCTTGGTATTGTTGCTCCAAG (double strand) [GW8-P2],binds
6,CCACCGTCCCCCCTTCCCCCTCCAACCAGATCTGGGAGGAAGGGAGGGAGGGAGGGGAG (double strand) [GS3-P4],binds
7,CTTATAGTCCAACAATTTGAGAGCAATTAATGGTCAAAAATTAAATGAAAAATAGAAATTC (double strand) [GW8-P1],binds
8,CTCTCCCTTCCATCATTACTTGCCCAAAAACGGCAATCCCCTCCCCTCCATCTCCATGTG (double strand) [GS3-P2],binds

# Construct, isoform or probe ends are uncertain for at least one entry. For some of these results: Weaker means in comparison with the reference protein, sequence or condition of that experiment. At least one verdict rests on a figure or table, not on a statement of the authors.
